Results deposited as PubChem BioAssay AID743448 (Peter MacCallum Cancer Centre, 2014).
This is a random part of 106 deposited reagents. 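Calls are per line and drug panel including etoposide, not vorinostat-specific; gene picks needed hits in two or more extra lines with vorinostat versus etoposide.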 Further read-outs or replicates are left out here.

Screen: 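Test whether knock-downs sensitising to vorinostat hold across several colon lines but not etoposide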 (follow-up of hits)
Cell system: four human colon cancer cell lines: HCT116-VR (vorinostat-resistant HCT116 derivative), SW480, SW620 and LIM1215
Reagents: siRNA pool against human genes, 40 nM siRNA pool
Duration: drug added two days after transfection, read one day later
Challenge: vorinostat 2.5 µM on one half of each plate, etoposide 5 µM on the other half
Detection: 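Caspase 3/7 activity by luminescence and live-cell viability by fluorescence, each given as a ratio to mock-transfected wells and as a robust z-score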
Scale: caspase ratio to mock: higher = more caspase activity than mock; viability ratio to mock: higher = more live cells than mock
Hit rule: 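a row is a hit if caspase relative to mock is 1.6 or above or viability relative to mock is 0.75 or below; wells dying heavily without drug are not called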
Meaning of the calls: active = caspase or viability hit in this panel; inactive = no change, or unhealthy well

gene knocked down | cell line and drug panel | caspase ratio to mock | viability ratio to mock | Outcome
PSMA7 | LIM1215 cells with etoposide | 3.08 | 0.97 | inactive
PSMA7 | LIM1215 cells with vorinostat | 4.88 | 0.8 | active
PSMA7 | SW480 cells with etoposide | 1.91 | 0.9 | active
PSMA7 | SW480 cells with vorinostat | 1.8 | 0.88 | active
PSMA7 | SW620 cells with etoposide | 1.52 | 0.82 | inactive
PSMA7 | SW620 cells with vorinostat | 1.61 | 0.74 | active
PSMA7 | vorinostat-resistant HCT116 cells with etoposide | 3.35 | 0.57 | active
PSMA7 | vorinostat-resistant HCT116 cells with vorinostat | 4.15 | 0.6 | active
BDP1 | LIM1215 cells with etoposide | 1.36 | 0.79 | inactive
BDP1 | LIM1215 cells with vorinostat | 1.5 | 1.04 | inactive
BDP1 | SW480 cells with etoposide | 1.36 | 0.9 | inactive
BDP1 | SW480 cells with vorinostat | 2.33 | 1.1 | active
BDP1 | SW620 cells with etoposide | 0.71 | 0.88 | inactive
BDP1 | SW620 cells with vorinostat | 1.46 | 1.06 | inactive
BDP1 | vorinostat-resistant HCT116 cells with etoposide | 0.64 | 0.66 | active
BDP1 | vorinostat-resistant HCT116 cells with vorinostat | 1.02 | 0.73 | active
NUP62 | LIM1215 cells with etoposide | 2.82 | 1.01 | active
NUP62 | LIM1215 cells with vorinostat | 3.23 | 0.99 | active
NUP62 | SW480 cells with etoposide | 3.1 | 0.76 | active
NUP62 | SW480 cells with vorinostat | 1.39 | 0.9 | inactive
NUP62 | SW620 cells with etoposide | 0.87 | 0.92 | inactive
NUP62 | SW620 cells with vorinostat | 1.06 | 0.76 | inactive
NUP62 | vorinostat-resistant HCT116 cells with etoposide | 2.51 | 0.8 | active
NUP62 | vorinostat-resistant HCT116 cells with vorinostat | 2.58 | 0.73 | active
SCRT2 | LIM1215 cells with etoposide | 2.69 | 0.82 | inactive
SCRT2 | LIM1215 cells with vorinostat | 3.36 | 0.93 | inactive
SCRT2 | SW480 cells with etoposide | 1.96 | 0.86 | active
SCRT2 | SW480 cells with vorinostat | 1.98 | 0.9 | active
SCRT2 | SW620 cells with etoposide | 1.18 | 0.93 | inactive
SCRT2 | SW620 cells with vorinostat | 1.28 | 1.08 | inactive
SCRT2 | vorinostat-resistant HCT116 cells with etoposide | 1.75 | 0.84 | active
SCRT2 | vorinostat-resistant HCT116 cells with vorinostat | 2.02 | 1 | active
GLI1 | LIM1215 cells with etoposide | 1.27 | 1.04 | inactive
GLI1 | LIM1215 cells with vorinostat | 1.7 | 1.07 | active
GLI1 | SW480 cells with etoposide | 1 | 0.84 | inactive
GLI1 | SW480 cells with vorinostat | 1.12 | 0.94 | inactive
GLI1 | SW620 cells with etoposide | 1.05 | 0.9 | inactive
GLI1 | SW620 cells with vorinostat | 1.3 | 0.97 | inactive
GLI1 | vorinostat-resistant HCT116 cells with etoposide | 1.35 | 1.02 | inactive
GLI1 | vorinostat-resistant HCT116 cells with vorinostat | 1.86 | 0.98 | active
POLR2K | LIM1215 cells with etoposide | 1.49 | 0.97 | inactive
POLR2K | LIM1215 cells with vorinostat | 1.88 | 0.84 | active
POLR2K | SW480 cells with etoposide | 3.04 | 0.78 | active
POLR2K | SW480 cells with vorinostat | 2 | 0.72 | active
POLR2K | SW620 cells with etoposide | 1.13 | 0.8 | inactive
POLR2K | SW620 cells with vorinostat | 1.31 | 0.91 | inactive
POLR2K | vorinostat-resistant HCT116 cells with etoposide | 2.65 | 0.78 | active
POLR2K | vorinostat-resistant HCT116 cells with vorinostat | 2.54 | 0.74 | active
ANO9 | LIM1215 cells with etoposide | 2.13 | 1.12 | active
ANO9 | LIM1215 cells with vorinostat | 1.74 | 0.94 | active
ANO9 | SW480 cells with etoposide | 1.62 | 1.09 | active
ANO9 | SW480 cells with vorinostat | 2.15 | 0.93 | active
ANO9 | SW620 cells with etoposide | 1.02 | 0.96 | inactive
ANO9 | SW620 cells with vorinostat | 0.98 | 0.82 | inactive
ANO9 | vorinostat-resistant HCT116 cells with etoposide | 1.09 | 1.03 | inactive
ANO9 | vorinostat-resistant HCT116 cells with vorinostat | 1.63 | 0.98 | active
RLN3 | LIM1215 cells with etoposide | 1.81 | 1.03 | active
RLN3 | LIM1215 cells with vorinostat | 1.78 | 1 | active
RLN3 | SW480 cells with etoposide | 1.83 | 1.04 | active
RLN3 | SW480 cells with vorinostat | 1.98 | 0.87 | active
RLN3 | SW620 cells with etoposide | 1.38 | 0.94 | inactive
RLN3 | SW620 cells with vorinostat | 1.48 | 0.86 | inactive
RLN3 | vorinostat-resistant HCT116 cells with etoposide | 1.29 | 1.02 | inactive
RLN3 | vorinostat-resistant HCT116 cells with vorinostat | 1.44 | 1.01 | inactive

Laid out differently: results already given.
| gene knocked down | cell line and drug panel | caspase ratio to mock | viability ratio to mock | Outcome |
| --- | --- | --- | --- | --- |
| ANO9 | SW620 cells with etoposide | 1.02 | 0.96 | inactive |
| ANO9 | SW620 cells with vorinostat | 0.98 | 0.82 | inactive |
| ANO9 | vorinostat-resistant HCT116 cells with etoposide | 1.09 | 1.03 | inactive |
| ANO9 | vorinostat-resistant HCT116 cells with vorinostat | 1.63 | 0.98 | active |
| RLN3 | LIM1215 cells with etoposide | 1.81 | 1.03 | active |
| RLN3 | LIM1215 cells with vorinostat | 1.78 | 1 | active |
| RLN3 | SW480 cells with etoposide | 1.83 | 1.04 | active |
| RLN3 | SW480 cells with vorinostat | 1.98 | 0.87 | active |
